Some entries share one result that the patent states for a list of compounds.
What was measured:
Leptosphaeria nodorum = Leptosphaeria nodorum test (wheat)/protective; format: in vivo; conditions: active compound concentration 1000 ppm, protective, evaluation 10 days after inoculation
Sphaerotheca fuliginea = test: Sphaerotheca test (cucumber)/protective; format: in vivo; conditions: active compound concentration 500 ppm, protective, evaluation 7 days after inoculation
[1] = tested on: Fusarium nivale (var. majus); test: Fusarium nivale (var. majus) test (wheat)/protective; format: in vivo; conditions: active compound concentration 1000 ppm, protective, evaluation 6 days after inoculation
[2] = tested on: apple scab pathogen Venturia inaequalis; test: Venturia test (apple)/protective; format: in vivo; conditions: active compound concentration 100 ppm, protective, evaluation 10 days after inoculation
[3] = tested on: bean rust pathogen Uromyces appendiculatus; test: Uromyces test (bean)/protective; format: in vivo; conditions: active compound concentration 100 ppm, protective, evaluation 10 days after inoculation
Alternaria solani = test: Alternaria test (tomato)/protective; format: in vivo; conditions: active compound concentration 500 ppm, protective, evaluation 7 days after inoculation
Puccinia recondita = test: Puccinia test (wheat)/protective; conditions: active compound concentration 1000 ppm, protective, evaluation 10 days after inoculation
Rhizoctonia solani = test: Rhizoctonia test (rice)/protective; format: in vivo; conditions: active compound concentration 250 ppm, protective, evaluation 4 days after inoculation
Boophilus microplus = Boophilus microplus test (BOOPMI injection); format: in vivo; conditions: application rate 20 μg/animal; injection into the abdomen

Row | SMILES | efficacy (Leptosphaeria nodorum) [%] | efficacy (Sphaerotheca fuliginea) [%] | efficacy [1] [%] | efficacy [2] [%] | efficacy [3] [%] | efficacy (Alternaria solani) [%] | efficacy (Puccinia recondita) [%] | efficacy (Rhizoctonia solani) [%] | activity (deposition of fertile eggs) (Boophilus microplus) [%]
1 | COc1cc(Nc2ncc(Cl)c(NC3CCC3)n2)cc(OC)c1.Cl [Compound 2-3] | ≥ 70 | ≥ 70 | ≥ 70 | ≥ 70 | – | – | – | – | –
2 | CC(=O)c1cccc(Nc2ncc(Cl)c(NC3CCC3)n2)c1.Cl [Compound 2-4] | ≥ 70 | – | – | ≥ 70 | ≥ 70 | ≥ 70 | – | – | –
3 | CC(C)c1ccc(Nc2ncc(Cl)c(NC3CCC3)n2)cc1.Cl [Compound 2-5] | – | ≥ 70 | ≥ 70 | ≥ 70 | ≥ 70 | ≥ 70 | ≥ 70 | – | –
4 | CC(=O)c1cccc(Nc2ncc(Br)c(NC3CCC3)n2)c1 [Compound 32] | – | ≥ 70 | – | ≥ 70 | ≥ 70 | ≥ 70 | ≥ 70 | – | –
5 | COc1cc(Nc2ncc(Br)c(NC3CCC3)n2)cc(OC)c1OC [Compound 38] | ≥ 70 | ≥ 70 | ≥ 70 | ≥ 70 | – | – | ≥ 70 | – | –
6 | COCc1cccc(Nc2ncc(Cl)c(NC3CCC3)n2)c1 [Compound 42] | ≥ 70 | ≥ 70 | ≥ 70 | ≥ 70 | ≥ 70 | – | ≥ 70 | – | –
7 | O=C1CCCN1c1cccc(Nc2ncc(Br)c(NC3CCC3)n2)c1 [Compound 45] | ≥ 70 | ≥ 70 | ≥ 70 | ≥ 70 | – | – | ≥ 70 | – | –
8 | COC(=O)Nc1ccc(Nc2ncc(Br)c(NC3CCC3)n2)cc1 [Compound 46] | – | ≥ 70 | – | ≥ 70 | – | ≥ 70 | ≥ 70 | ≥ 80 | –
9 | O=C1CCCN1c1cccc(Nc2ncc(Cl)c(NC3CCC3)n2)c1 [Compound 48] | ≥ 70 | ≥ 70 | ≥ 70 | ≥ 70 | ≥ 70 | – | ≥ 70 | ≥ 80 | –
10 | Fc1ccc(Nc2ncc(Br)c(NC3CCC3)n2)cc1 [Compound 49] | ≥ 70 | ≥ 70 | ≥ 70 | ≥ 70 | – | – | – | – | –
11 | O=C1CCCN1c1cccc(Nc2ncc(C(F)(F)F)c(NC3CCC3)n2)c1 [Compound 55] | ≥ 70 | ≥ 70 | ≥ 70 | ≥ 70 | ≥ 70 | ≥ 70 | ≥ 70 | ≥ 80 | –
12 | COc1ccc(Nc2ncc(Br)c(NC3CCC3)n2)cc1OC [Compound 65] | – | ≥ 70 | – | ≥ 70 | ≥ 70 | ≥ 70 | ≥ 70 | – | –
13 | COC(=O)c1ccc(Nc2ncc(Br)c(NC3CCC3)n2)cc1Cl [Compound 78] | – | ≥ 70 | – | – | ≥ 70 | – | ≥ 70 | – | –
14 | C=CCNC(=O)c1ccc(Nc2ncc(Br)c(NC3CCC3)n2)cc1 [Compound 83] | – | ≥ 70 | ≥ 70 | – | – | – | ≥ 70 | – | ≥ 80
15 | CNS(=O)(=O)Cc1ccc(Nc2ncc(Br)c(NC3CCC3)n2)cc1 [Compound 86] | – | – | – | – | ≥ 70 | – | ≥ 70 | – | –
16 | CS(=O)(=O)Nc1cccc(Nc2ncc(Br)c(NC3CCC3)n2)c1 [Compound 87] | – | – | – | – | ≥ 70 | – | ≥ 70 | – | –
17 | CS(=O)(=O)Cc1cccc(Nc2ncc(Br)c(NC3CCC3)n2)c1 [Compound 88] | – | ≥ 70 | – | ≥ 70 | ≥ 70 | ≥ 70 | ≥ 70 | – | ≥ 80
18 | CC(=O)N(C)c1ccc(Nc2ncc(Br)c(NC3CCC3)n2)cc1 [Compound 94] | ≥ 70 | ≥ 70 | ≥ 70 | ≥ 70 | ≥ 70 | ≥ 70 | ≥ 70 | ≥ 80 | –
19 | CC(=O)Nc1cccc(Nc2ncc(Br)c(NC3CCC3)n2)c1 [Compound 96] | – | – | ≥ 70 | – | ≥ 70 | ≥ 70 | ≥ 70 | – | –
20 | COC(=O)Nc1cccc(Nc2ncc(Br)c(NC3CCC3)n2)c1 [Compound 106] | – | – | – | ≥ 70 | ≥ 70 | – | ≥ 70 | – | –
21 | CCN(C(C)=O)c1ccc(Nc2ncc(Cl)c(NC3CCC3)n2)cc1 [Compound 119] | – | – | – | – | ≥ 70 | ≥ 70 | ≥ 70 | ≥ 80 | –
22 | CC(=O)Nc1cccc(Nc2ncc(Cl)c(NC3CCC3)n2)c1 [Compound 123] | – | – | ≥ 70 | – | – | – | ≥ 70 | ≥ 80 | –
23 | CC(C)(C)C(=O)Nc1cccc(Nc2ncc(Cl)c(NC3CCC3)n2)c1 [Compound 125] | – | – | ≥ 70 | – | – | ≥ 70 | – | ≥ 80 | –
24 | COC(=O)Nc1cccc(Nc2ncc(Cl)c(NC3CCC3)n2)c1 [Compound 139] | – | – | – | – | – | – | ≥ 70 | ≥ 80 | –
25 | CC(C)(C)NC(=O)Cc1cccc(Nc2ncc(Br)c(NC3CCC3)n2)c1 [Compound 143] | – | ≥ 70 | – | ≥ 70 | – | – | ≥ 70 | ≥ 80 | –
26 | N#CCC(=O)c1ccc(Nc2ncc(Br)c(NC3CCC3)n2)cc1 [Compound 149] | – | ≥ 70 | ≥ 70 | – | – | – | ≥ 70 | ≥ 80 | –
27 | CN1CC(=O)N(c2ccc(Nc3ncc(Br)c(NC4CCC4)n3)cc2)C1=O [Compound 164] | ≥ 70 | ≥ 70 | ≥ 70 | ≥ 70 | – | – | ≥ 70 | – | –
28 | COCCNCc1ccc(Nc2ncc(Br)c(NC3CCC3)n2)cc1 [Compound 176] | ≥ 70 | ≥ 70 | ≥ 70 | ≥ 70 | – | ≥ 70 | ≥ 70 | – | –
29 | OC(c1cccc(Nc2ncc(Br)c(NC3CCC3)n2)c1)C(F)(F)F (stereo not drawn) [Compound 214] | ≥ 70 | – | ≥ 70 | ≥ 70 | ≥ 70 | ≥ 70 | ≥ 70 | – | –
30 | CC(=O)c1cccc(Nc2ncc(C(F)(F)F)c(NC3CCC3)n2)c1 [Compound 227] | ≥ 70 | ≥ 70 | – | ≥ 70 | – | ≥ 70 | ≥ 70 | – | –

— patent publication US20110105472A1, “Diaminopyrimidines as crop protection agents” (Bayer CropScience AG, priority 2008, published 2011)
